Assay results from patent US9686985B2, “Fungicide N-cycloalkyl-N-bicyclicmethylene-carboxamide derivatives” (BAYER INTELLECTUAL PROPERTY GMBH, priority 2012, dated 2017).
Some entries share one result that the patent states for a list of compounds.

Legend:
Sphaerotheca fuliginea = assay: Example A: in vivo preventive test on Sphaerotheca fuliginea (cucumber); conditions: table A2, dose 100 ppm, comparison with WO-2010/086311 compounds
Description: Example A: In Vivo Preventive Test on Sphaerotheca fuliginea (Cucumber) [table] To produce a suitable preparation of active compound, 1 part by weight of active compound is mixed with the stated amounts of solvent and emulsifier, and the concentrate is diluted with water to the desired concentration. To test for preventive activity, young plants are sprayed with the preparation of active compound at the stated rate of application. One day after this treatment, the plants are inoculated with an aqueous spore suspension of Sphaerotheca fuliginea. Then the plants are placed in a greenhouse at approximately 23° C. and a relative atmospheric humidity of approximately 70%.

Uromyces appendiculatus = assay: Example G: in vivo preventive test on Uromyces appendiculatus (bean rust); conditions: summary over doses of 500 ppm and 100 ppm; bean plants
Description: Example G: In Vivo Preventive Test on Uromyces appendiculatus (Bean Rust) […] Bean plants (“Saxa” variety), sown in starter cups on a 50/50 peat soil pozzolana substrate and grown at 24° C., are treated at the 2 leaf stage (9 cm height) by spraying with the active ingredient prepared as described above. Plants, used as controls, are treated with the mixture of acetone/tween/DMSO/water not containing the active material. After 24 hours, the plants are contaminated by spraying the leaves with an aqueous suspension of Uromyces appendiculatus spores (150 000 spores per mL). The spores are collected from infected plants and are suspended in water containing 2.5 mL/L of Tween 80 at 10%. The contaminated bean plants are incubated for 24 hours at 20° C. and at 100% relative humidity, and then for 10 days at 20° C. and at 70-80% relative humidity. Grading (% of efficacy) is carried out 11 days after the contamination, in comparison with the control plants.

SMILES | protection (Uromyces appendiculatus) | further results
Cn1nc(C(F)F)c(C(=O)N(CC2CC(C)(C)Oc3ccccc32)C2CC2)c1F (stereo not shown) [I.33] |  | Efficacy (Sphaerotheca fuliginea; listed as 1.33): at least 90%
Cc1ccc2c(c1)CCC2CN(C(=O)c1c(C(F)F)nn(C)c1F)C1CC1 (stereo not shown) [I.6] | at least 50% | 
Cn1nc(C(F)F)c(C(=O)N(CC2CCc3c(F)cccc32)C2CC2)c1F (stereo not shown) [I.7] | at least 50% | 
Cn1nc(C(F)F)c(C(=O)N(CC2CCc3ccccc32)C2CC2)c1F (stereo not shown) [I.2] | at least 50% | 
Cn1nc(C(F)F)c(C(=O)N(CC2CCc3cc(Cl)ccc32)C2CC2)c1F (stereo not shown) [I.12] | at least 50% | 
CC(C1CCCc2ccccc21)N(C(=O)c1c(C(F)F)nn(C)c1F)C1CC1 (stereo not shown) [I.23] |  | Efficacy (Sphaerotheca fuliginea; listed as 1.23): at least 90%
Cn1nc(C(F)F)c(C(=O)N(CC2CC(C)(C)c3ccccc32)C2CC2)c1F (stereo not shown) [I.9] | at least 50% | 
